Taken from: PubChem BioAssay AID504808 (Drosophila RNAi Screening Center, 2011)
Assay: 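Genes whose loss lifts activity of an E2F-responsive reporter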 (primary screen). System: Drosophila S2 cells. Knock-down reagent: long dsRNA against Drosophila genes. Read-out: 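Firefly luciferase driven by E2F sites, normalised to Renilla luciferase on the same minimal promoter, measured by plate reader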. Reading the numbers: E2F firefly: higher = more E2F reporter activity; Renilla normaliser: higher = more normaliser reporter signal. Rule for the call: 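Called active if the normalised E2F reporter went up by over 50%; the cutoff is arbitrary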.
In all, the deposit lists about 21,000 reagents; below is a random part of those with a known target gene and a result. In the full data, 18 (0.084%) are marked active. 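Raw counts without plate normalisation, one of two replicates; the ratio scores behind the calls were not deposited.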 Not stated in the record: the amount of reagent, the time to read-out.

For CG3253 [DRSC04350] the deposit lists E2F firefly, rep 1 = 83842; Renilla normaliser, rep 1 = 3340; inactive.
Silencing of AttB [DRSC06734] came out at: E2F firefly, rep 1 = 93735; Renilla normaliser, rep 1 = 4020; inactive.
After knock-down of l(2)efl [DRSC04698], the screen gave E2F firefly, rep 1 = 78917; Renilla normaliser, rep 1 = 3207; inactive.
Knock-down of CG13692 [DRSC00361] came out at: E2F firefly, rep 1 = 1.72e5; Renilla normaliser, rep 1 = 6705; inactive.
pippin [DRSC04489] scored E2F firefly, rep 1 = 84216; Renilla normaliser, rep 1 = 3584; inactive.
Ostgamma [DRSC03074] gave E2F firefly, rep 1 = 93628; Renilla normaliser, rep 1 = 4174; inactive.
Depletion of CG7191 [DRSC03022] resulted in: E2F firefly, rep 1 = 1.66e5; Renilla normaliser, rep 1 = 5062; inactive.
Dhps [DRSC10948] scored E2F firefly, rep 1 = 84569; Renilla normaliser, rep 1 = 3564; inactive.
Depletion of mAChR-B [DRSC16345] resulted in: E2F firefly, rep 1 = 1.27e5; Renilla normaliser, rep 1 = 6964; inactive.
After knock-down of Meics [DRSC11413] the results were E2F firefly, rep 1 = 1.16e5; Renilla normaliser, rep 1 = 5659; inactive.
c-cup [DRSC00458] scored E2F firefly, rep 1 = 1.72e5; Renilla normaliser, rep 1 = 5164; inactive.
For CG30393 [DRSC04253] the deposit lists E2F firefly, rep 1 = 90650; Renilla normaliser, rep 1 = 4024; inactive.
Depletion of Or42a [DRSC04912] resulted in: E2F firefly, rep 1 = 1.05e5; Renilla normaliser, rep 1 = 4614; inactive.
For CG14292 [DRSC14772], the entry reads E2F firefly, rep 1 = 1.35e5; Renilla normaliser, rep 1 = 6810; inactive.
With knock-down of CG33769 [DRSC11716], the screen gave E2F firefly, rep 1 = 1.31e5; Renilla normaliser, rep 1 = 6056; inactive.
For ND-B14 [DRSC07029] the deposit lists E2F firefly, rep 1 = 1.41e5; Renilla normaliser, rep 1 = 4768; inactive.
With knock-down of mirr [DRSC11369] the results were E2F firefly, rep 1 = 1.53e5; Renilla normaliser, rep 1 = 7039; inactive.
After knock-down of dpr2 [DRSC02370] the results were E2F firefly, rep 1 = 1.52e5; Renilla normaliser, rep 1 = 4742; inactive.
Silencing of dpr2 [DRSC02371] resulted in: E2F firefly, rep 1 = 1.46e5; Renilla normaliser, rep 1 = 5297; inactive.
sl [DRSC20377] showed E2F firefly, rep 1 = 7940; Renilla normaliser, rep 1 = 744; inactive.
CG15279 [DRSC01935] gave E2F firefly, rep 1 = 93874; Renilla normaliser, rep 1 = 3929; inactive.
Against pyd [DRSC12712] the deposit lists E2F firefly, rep 1 = 78044; Renilla normaliser, rep 1 = 4038; inactive.
With knock-down of pyd [DRSC14387], the screen gave E2F firefly, rep 1 = 74062; Renilla normaliser, rep 1 = 3960; inactive.
Against pyd [DRSC14445], the values are E2F firefly, rep 1 = 1.45e5; Renilla normaliser, rep 1 = 6331; inactive.
Depletion of pyd [DRSC14509] gave: E2F firefly, rep 1 = 1.16e5; Renilla normaliser, rep 1 = 5624; inactive.
pyd [DRSC16547] showed E2F firefly, rep 1 = 63525; Renilla normaliser, rep 1 = 3763; inactive.
Knock-down of pyd [DRSC16548] came out at: E2F firefly, rep 1 = 1.23e5; Renilla normaliser, rep 1 = 6226; inactive.
Silencing of pyd [DRSC17041] gave: E2F firefly, rep 1 = 1.35e5; Renilla normaliser, rep 1 = 6909; inactive.

Reprinted from the entries so far, 2 entries:
pyd [DRSC14387] — E2F firefly, rep 1: 74062; Renilla normaliser, rep 1: 3960; call: inactive
pyd [DRSC14445] — E2F firefly, rep 1: 1.45e5; Renilla normaliser, rep 1: 6331; call: inactive
